Results taken from ChEMBL document CHEMBL4316593 (Eur J Med Chem, 2019).
Further values from the same series stand in other lists.

Key:
Type in all cases: cell-based
Conditions in all cases: U-87MG ATCC
[1] = Inhibition of RTK/PI3K/AKT/mTOR signaling in human U87 cells assessed as up regulation of VPS28 gene expression at cytotoxic IC50 measured after 48 hrs relative to control
[2] = Inhibition of RTK/PI3K/AKT/mTOR signaling in human U87 cells assessed as up regulation of FAM162A gene expression at cytotoxic IC50 measured after 48 hrs relative to control
[3] = Inhibition of RTK/PI3K/AKT/mTOR signaling in human U87 cells assessed as down regulation of SPTAN1 gene expression at cytotoxic IC50 measured after 48 hrs relative to control
[4] = Inhibition of RTK/PI3K/AKT/mTOR signaling in human U87 cells assessed as down regulation of SERPINI1 gene expression at cytotoxic IC50 measured after 48 hrs relative to control
[5] = Inhibition of RTK/PI3K/AKT/mTOR signaling in human U87 cells assessed as up regulation of NUAK family kinase 1 gene expression at cytotoxic IC50 measured after 48 hrs relative to control
[6] = Inhibition of RTK/PI3K/AKT/mTOR signaling in human U87 cells assessed as down regulation of FAF1 gene expression at cytotoxic IC50 measured after 48 hrs relative to control
[7] = Inhibition of RTK/PI3K/AKT/mTOR signaling in human U87 cells assessed as down regulation of GPATCH8 gene expression at cytotoxic IC50 measured after 48 hrs relative to control
[8] = Inhibition of RTK/PI3K/AKT/mTOR signaling in human U87 cells assessed as down regulation of C12orf4 gene expression at cytotoxic IC50 measured after 48 hrs relative to control
[9] = Inhibition of RTK/PI3K/AKT/mTOR signaling in human U87 cells assessed as down regulation of EFNB2 gene expression at cytotoxic IC50 measured after 48 hrs relative to control
[10] = Inhibition of RTK/PI3K/AKT/mTOR signaling in human U87 cells assessed as down regulation of C5orf34 gene expression at cytotoxic IC50 measured after 48 hrs relative to control
[11] = Inhibition of RTK/PI3K/AKT/mTOR signaling in human U87 cells assessed as down regulation of TLN1 gene expression at cytotoxic IC50 measured after 48 hrs relative to control
[12] = Inhibition of RTK/PI3K/AKT/mTOR signaling in human U87 cells assessed as up regulation of methyltransferase like 26 gene expression at cytotoxic IC50 measured after 48 hrs relative to control
[13] = Inhibition of RTK/PI3K/AKT/mTOR signaling in human U87 cells assessed as down regulation of IRF6 gene expression at cytotoxic IC50 measured after 48 hrs relative to control
[14] = Inhibition of RTK/PI3K/AKT/mTOR signaling in human U87 cells assessed as down regulation of KHDRBS3 gene expression at cytotoxic IC50 measured after 48 hrs relative to control
[15] = Inhibition of RTK/PI3K/AKT/mTOR signaling in human U87 cells assessed as up regulation of SLC43A1 gene expression at cytotoxic IC50 measured after 48 hrs relative to control
[16] = Inhibition of RTK/PI3K/AKT/mTOR signaling in human U87 cells assessed as up regulation of DPYSL4 gene expression at cytotoxic IC50 measured after 48 hrs relative to control
[17] = Inhibition of RTK/PI3K/AKT/mTOR signaling in human U87 cells assessed as up regulation of deleted in primary ciliary dyskinesia homolog (mouse) gene expression at cytotoxic IC50 measured after 48 hrs relative to control
[18] = Inhibition of RTK/PI3K/AKT/mTOR signaling in human U87 cells assessed as up regulation of ETV4 gene expression at cytotoxic IC50 measured after 48 hrs relative to control
[19] = Inhibition of RTK/PI3K/AKT/mTOR signaling in human U87 cells assessed as up regulation of SMARCC1 gene expression at cytotoxic IC50 measured after 48 hrs relative to control
[20] = Inhibition of RTK/PI3K/AKT/mTOR signaling in human U87 cells assessed as up regulation of RPS3A gene expression at cytotoxic IC50 measured after 48 hrs relative to control
[21] = Inhibition of RTK/PI3K/AKT/mTOR signaling in human U87 cells assessed as up regulation of GTSF1 gene expression at cytotoxic IC50 measured after 48 hrs relative to control
[22] = Inhibition of RTK/PI3K/AKT/mTOR signaling in human U87 cells assessed as down regulation of FAM46A gene expression at cytotoxic IC50 measured after 48 hrs relative to control
[23] = Inhibition of RTK/PI3K/AKT/mTOR signaling in human U87 cells assessed as up regulation of RPS24 gene expression at cytotoxic IC50 measured after 48 hrs relative to control
[24] = Inhibition of RTK/PI3K/AKT/mTOR signaling in human U87 cells assessed as down regulation of ZNF823 gene expression at cytotoxic IC50 measured after 48 hrs relative to control
[25] = Inhibition of RTK/PI3K/AKT/mTOR signaling in human U87 cells assessed as down regulation of RAD51 gene expression at cytotoxic IC50 measured after 48 hrs relative to control
[26] = Inhibition of RTK/PI3K/AKT/mTOR signaling in human U87 cells assessed as down regulation of NRBF2 gene expression at cytotoxic IC50 measured after 48 hrs relative to control
[27] = Inhibition of RTK/PI3K/AKT/mTOR signaling in human U87 cells assessed as down regulation of DYNC1I2 gene expression at cytotoxic IC50 measured after 48 hrs relative to control
[28] = Inhibition of RTK/PI3K/AKT/mTOR signaling in human U87 cells assessed as down regulation of KIAA0556 gene expression at cytotoxic IC50 measured after 48 hrs relative to control
[29] = Inhibition of RTK/PI3K/AKT/mTOR signaling in human U87 cells assessed as up regulation of PTP4A3 gene expression at cytotoxic IC50 measured after 48 hrs relative to control
[30] = Inhibition of RTK/PI3K/AKT/mTOR signaling in human U87 cells assessed as down regulation of UBTF gene expression at cytotoxic IC50 measured after 48 hrs relative to control
[31] = Inhibition of RTK/PI3K/AKT/mTOR signaling in human U87 cells assessed as up regulation of IRS1 gene expression at cytotoxic IC50 measured after 48 hrs relative to control
[32] = Inhibition of RTK/PI3K/AKT/mTOR signaling in human U87 cells assessed as down regulation of TFCP2L1 gene expression at cytotoxic IC50 measured after 48 hrs relative to control

## CC(=O)C(=NNc1ccccc1C#N)C(C)=O
[1]
  log2FC: 0.589
[2]
  log2FC: 1.79
[3]
  log2FC: -0.95
[4]
  log2FC: -2.65
[5]
  log2FC: 0.809
[6]
  log2FC: -0.755
[7]
  log2FC: -0.565
[8]
  log2FC: -0.982
[9]
  log2FC: -1.33
[10]
  log2FC: -2.63
[11]
  log2FC: -0.367
[12]
  log2FC: 0.989
[13]
  log2FC: -0.635
[14]
  log2FC: -2.25
[15]
  log2FC: 1.61
[16]
  log2FC: 1.7
[17]
  log2FC: 1.07
[18]
  log2FC: 0.609
[19]
  log2FC: 0.34
[20]
  log2FC: 0.368
[21]
  log2FC: 0.531
[22]
  log2FC: -0.72
[23]
  log2FC: 0.334
[24]
  log2FC: -1.59
[25]
  log2FC: -1.19
[26]
  log2FC: -0.774
[27]
  log2FC: -0.781
[28]
  log2FC: -0.638
[29]
  log2FC: 2.12
[30]
  log2FC: -0.521
[31]
  log2FC: 1.82
[32]
  log2FC: -1.27
